The test has as its system HMC1.1 cells (naturally expressing KITV560G). The experiment in a line: cells. Conditions: Homo sapiens, 72 h, read-out: IC50, inhibition of proliferation.

The source of these data is US20070225202A1, “Methods for Identifying Modulators of Active Kit Tyrosine Kinase Receptor” (priority 2003, published 2007).

Turning to `Cc1ccc(NC(=O)c2ccc(CN3CCN(C)CC3)cc2)cc1Nc1nccc(-c2cccnc2)n1` [Gleevec], the IC50 is 0.06 µM.
